The text below walks through data of PubChem BioAssay AID248 (DTP/NCI, 2004).

The list shows only some results of the screen, not a fair sample: it gathers tests that were run many times, whatever their T/C, doses with no T/C, and many T/C values between a quarter and a half above the control. Other doses and runs of a compound stand elsewhere. T/C is the treated group as % of the vehicle group. Some entries give survivors of the animals treated and no T/C: the source holds a T/C of zero for them, seemingly a mark for toxic or unscored doses. Some doses without a T/C left all or most animals alive at the check, yet need not have been tolerated: the source hardly ever lists a survival T/C far under the control, and the zero likely stands for such cases as well. Survivors were counted at the toxicity check, usually on the fifth day, unless a day is given; later deaths do not show. Schedules are NCI's codes, read here as Q, the interval in days (D) or hours (H), X, the number of doses. Some schedules carry Z or #; the key to these is not given. Where survival is the endpoint, the PubChem record calls one and a half times the control and up active, and a quarter to a half above the control has no call in these data; cut-offs in other NCI protocols can differ. Some entries hold several experiments; their values stand side by side, smallest first.

For the assay, the system named is L1210 leukemia ip in BDF1 mice, survival T/C. Nature of the assay: NCI In Vivo Anticancer Drug Screen. Data for tumor model L1210 Leukemia (intraperitoneal) in B6D2F1 (BDF1) mice. The note with it: T/C endpoint: mean survival time, higher T/C = longer survival.
[1] abbreviates: dose: 400.0 mg/kg/injection, schedule: Q01DX009 (ip), vehicle: saline with Tween-80.
Where [2] appears, read: dose: 200.0 mg/kg/injection, schedule: Q01DX009 (ip), vehicle: saline with Tween-80.
The mark [3] stands for this setting: dose: 100.0 mg/kg/injection, schedule: Q01DX009 (ip), vehicle: saline.
The mark [4] stands for this setting: dose: 80.0 mg/kg/injection, schedule: Q01DX001 (ip), vehicle: saline.
The mark [5] stands for this setting: dose: 100.0 mg/kg/injection, schedule: Q01DX001 (ip), vehicle: saline.
Where [6] appears, read: dose: 200.0 mg/kg/injection, schedule: Q01DX001 (ip), vehicle: saline.
The mark [7] stands for this setting: dose: 400.0 mg/kg/injection, schedule: Q01DX001 (ip), vehicle: saline.
The mark [8] stands for this setting: dose: 400.0 mg/kg/injection, schedule: Q04DX003 (ip), vehicle: saline with Tween-80.
Where [9] appears, read: dose: 50.0 mg/kg/injection, schedule: Q01DX001 (ip), vehicle: saline.
The mark [10] stands for this setting: dose: 55.0 mg/kg/injection, schedule: Q04DX003 (ip), vehicle: saline.
[11] abbreviates: dose: 80.0 mg/kg/injection, schedule: Q04DX003 (ip), vehicle: saline.
The mark [12] stands for this setting: dose: 100.0 mg/kg/injection, schedule: Q04DX003 (ip), vehicle: Klucel (hydroxypropylcellulose) (HPC).
The mark [13] stands for this setting: dose: 200.0 mg/kg/injection, schedule: Q01DX009 (ip), vehicle: Klucel (hydroxypropylcellulose) (HPC).
Setting [14] is: dose: 400.0 mg/kg/injection, schedule: Q04DX003 (ip), vehicle: Klucel (hydroxypropylcellulose) (HPC).

Consider `CCCCNC(=O)c1cc(NC(=O)Nc2ccc(C3=NCCN3)cc2)cc(NC(=O)Nc2ccc(C3=NCCN3)cc2)c1`, for which the T/C runs as follows: (dose: 31.0 mg/kg/injection, schedule: Q01DX Z (ip), vehicle: carboxymethylcellulose (CMC)) 126 and 132 % of control; (dose: 62.0 mg/kg/injection, schedule: Q01DX Z (ip), vehicle: carboxymethylcellulose (CMC)) 131 % of control. In addition, the survivor count (dose: 500.0 mg/kg/injection, schedule: Q01DX Z (ip), vehicle: carboxymethylcellulose (CMC)) is recorded as 2 of 6.

As for `NSc1nc2ccccc2s1`, the survivor count under setting [1] was 3 of 6.

As for `C[n+]1ccccc1CCC(=O)Nc1ccccc1`, the survivor count by setting is: under setting [2], 2 of 6; under setting [1], 0 of 6.

As for `CCN(CC)Cc1cc(Nc2cc(C)nc3ccc(N(C)C)cc23)ccc1O`, the survivor count under setting [3] was 6 of 6; the survivor count (dose: 200.0 mg/kg/injection, schedule: Q01DX009 (ip), vehicle: saline) is given as 2 of 6; the survivor count (dose: 400.0 mg/kg/injection, schedule: Q01DX009 (ip), vehicle: saline) is 0 of 6.

On to `Nc1nc2nc(I)[nH]c2c(=O)[nH]1`, for which the survivor count under setting [4] is recorded as 0 of 6, the survivor count under setting [5] is 0 of 4, the survivor count under setting [6] is 1 of 4 and the survivor count under setting [7] is 1 of 4.

With `CC(C)COCCCN`, the survivor count under setting [3] was 2 of 6.

Regarding `COC1CC2C[CH]([Hg][Cl])C1C2` (stereo unspecified), the survivor count was 1 of 3 (dose: 50.0 mg/kg/injection, schedule: Q01DX009 (ip), vehicle: saline with Tween-80); 0 of 3 (dose: 100.0 mg/kg/injection, schedule: Q01DX009 (ip), vehicle: saline with Tween-80); 0 of 3 under setting [2].

Turning to `C/C=C/S(=O)(=O)c1ccccc1`, the survivor count (dose: 150.0 mg/kg/injection, schedule: Q01DX001 (ip), vehicle: carboxymethylcellulose (CMC)) was 3 of 6 and the survivor count (dose: 300.0 mg/kg/injection, schedule: Q01DX001 (ip), vehicle: carboxymethylcellulose (CMC)) is on record as 2 of 6.

In the case of `O=C(Nc1cccc(C(F)(F)F)c1)c1cccc(C(=O)Nc2cccc(C(F)(F)F)c2)c1`, the survivor count reads like this: (dose: 100.0 mg/kg/injection, schedule: Q04DX003 (ip), vehicle: saline with Tween-80) 6 of 6; (dose: 200.0 mg/kg/injection, schedule: Q04DX003 (ip), vehicle: saline with Tween-80) 6 of 6; under setting [8], 6 of 6.

Turning to `CC(C#N)OC(=O)c1ccccc1` (stereo unspecified), the survivor count is recorded as 2 of 6 under setting [9]; 0 of 6 under setting [10]; 0 of 6 (dose: 80.0 mg/kg/injection, schedule: Q01DX009 (ip), vehicle: acetone); 1 of 6 under setting [11]; 0 of 6 (dose: 100.0 mg/kg/injection, schedule: Q01DX001 (ip), vehicle: acetone); 0 of 6 (dose: 120.0 mg/kg/injection, schedule: Q01DX009 (ip), vehicle: acetone). The survivor count (dose: 200.0 mg/kg/injection, schedule: Q01DX001 (ip), vehicle: acetone) was 0 of 6 and the survivor count (dose: 400.0 mg/kg/injection, schedule: Q01DX001 (ip), vehicle: acetone) is recorded as 0 of 6.

Consider `C1CN2CCC1CC2`, for which the survivor count is 2 of 6 (dose: 20.0 mg/kg/injection, schedule: Q01DX001 (ip), vehicle: saline); 0 of 6 (dose: 40.0 mg/kg/injection, schedule: Q01DX001 (ip), vehicle: saline); 0 of 6 under setting [4]; 0 of 6 under setting [5]; 0 of 6 under setting [6]; 1 of 6 under setting [2]. The survivor count is 0 of 6 under setting [7] and 0 of 6 under setting [8].

On to `CC(=O)c1ccc(CC(C)C)cc1`, for which, under “dose: 75.0 mg/kg/injection, schedule: Q01DX009 (ip), vehicle: Klucel (hydroxypropylcellulose) (HPC)”, the survivor count is 0 of 6.

For the molecule `Cc1c2oc3c(C)c(N)cc(C(=O)NC4C(=O)NC(C(C)C)C(=O)N5CCCC5C(=O)N(C)CC(=O)N(C)C(C(C)C)C(=O)OC4C)c3nc-2c(C(=O)NC2C(=O)NC(C(C)C)C(=O)N3CCCC3C(=O)N(C)CC(=O)N(C)C(C(C)C)C(=O)OC2C)c(N)c1=O` (stereo unspecified), the T/C runs as follows: (dose: 100.0 micrograms/kg/injection, schedule: Q01DX009 (ip), vehicle: saline + alcohol) 133 % of control; (dose: 400.0 micrograms/kg/injection, schedule: Q04DX003 (ip), vehicle: saline + alcohol) 132 % of control; (dose: 600.0 micrograms/kg/injection, schedule: Q04DX003 (ip), vehicle: saline + alcohol) 132 % of control. In addition, the survivor count runs as follows: (dose: 400.0 micrograms/kg/injection, schedule: Q01DX009 (ip), vehicle: saline + alcohol) 7 of 8; (dose: 1600.0 micrograms/kg/injection, schedule: Q04DX003 (ip), vehicle: saline + alcohol) 4 of 8.

`CCCCC(C(=O)O)(c1ccccc1)c1ccccc1`: the survivor count (dose: 300.0 mg/kg/injection, schedule: Q04DX002 (ip), vehicle: gum acacia) is 0 of 3.

As for `Cc1cccc(NC(=O)CCl)c1`, the survivor count is on record as 6 of 6 under setting [12]; 0 of 6 under setting [13]; 0 of 6 (dose: 400.0 mg/kg/injection, schedule: Q01DX009 (ip), vehicle: Klucel (hydroxypropylcellulose) (HPC)); 6 of 6 under setting [14].

Take `ClC(C[n+]1ccccc1)c1ccccc1` (stereo unspecified): the survivor count is, setting by setting: under setting [6], 0 of 4; under setting [7], 0 of 4.

Turning to `O/N=C(\C=N\O)c1ccccc1`, the survivor count (dose: 400.0 mg/kg/injection, schedule: Q04DX003 (sc), vehicle: olive oil, sesame oil, peanut oil) is 6 of 6.

Consider `COc1ccc(C)cc1NC(=O)Nc1ccccc1F`, for which the survivor count under setting [13] is on record as 6 of 6.

On to `O=[N+]([O-])c1ccc([N+](=O)[O-])c2nsnc12`, for which the survivor count by setting is: (dose: 50.0 mg/kg/injection, schedule: Q04DX003 (ip), vehicle: Klucel (hydroxypropylcellulose) (HPC)) 6 of 6; under setting [12], 1 of 6; (dose: 200.0 mg/kg/injection, schedule: Q04DX003 (ip), vehicle: Klucel (hydroxypropylcellulose) (HPC)) 0 of 6; under setting [14], 0 of 6.

In the case of `Cc1ncc(CO)c(C2NOCc3ncsc32)c1O` (stereo unspecified), the survivor count reads like this: (dose: 25.0 mg/kg/injection, schedule: Q01DX009 (ip), vehicle: saline) 2 of 6; (dose: 35.0 mg/kg/injection, schedule: Q04DX003 (ip), vehicle: saline) 3 of 6; under setting [9], 0 of 6; under setting [10], 0 of 6; under setting [11], 0 of 6; under setting [5], 0 of 6. Also, the survivor count runs as follows: under setting [6], 0 of 6; under setting [7], 0 of 6.

For `CC(=O)NNC(=O)c1cnccn1`, the survivor count by setting is: (dose: 400.0 mg/kg/injection, schedule: Q01DX001 (ip), vehicle: water) 3 of 6; (dose: 600.0 mg/kg/injection, schedule: Q01DX001 (ip), vehicle: water) 0 of 6; (dose: 800.0 mg/kg/injection, schedule: Q01DX001 (ip), vehicle: water) 0 of 6.

As to `[O-][n+]1ccc(-c2ccccc2)cc1`, under “dose: 400.0 mg/kg/injection, schedule: Q04DX002 (ip), vehicle: saline”, the survivor count is recorded as 1 of 3.

With `CN(c1ccccc1Cl)c1ccccc1Cl`, the survivor count (dose: 25.6 mg/kg/injection, schedule: Q04DX002 (ip), vehicle: saline with Tween-80) is given as 3 of 3.

`CC(C)CC(NS(=O)(=O)Cc1ccccc1)C(=O)NNc1ccccc1` (stereo unspecified): under “dose: 400.0 mg/kg/injection, schedule: Q04DX003 (ip), vehicle: other”, the survivor count is given as 6 of 6.
